Values quoted from earlier work as cited in patent US20160095929A1, “PROMOTION OF WOUND HEALING” (Northwestern University, priority 2011, published 2016).
For at least one compound, name, drawing or mass did not settle the structure.

Settings: cited from earlier work

## OC[C@@H]1[C@@H](O)[C@H](O)[C@@H](O)CN1CCCCCOCC12CC3CC(CC(C3)C1)C2 [AMP-DNM]
  insulin sensitivity: enhances insulin sensitivity
